Laboratory results: PubChem BioAssay AID1259424 (University of Nebraska Medical Center, 2018)
In all, the deposit lists about 14,000 reagents; below is a part drawn at random. 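Higher correlation or smaller distance means closer resemblance to KSR1 loss; control wells, including KSR1 knockdowns, recur on many plates.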 Not given: the time to read-out.

Assay: 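Find knockdowns that reproduce the expression shifts seen after KSR1 loss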 (primary screen)
Cell system: human HCT116 colon cancer cells
Reagents: siRNA pool against human genes, 50 nM
Measured: 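Six signature mRNAs by branched-DNA multiplex assay, scaled to two housekeeping genes and non-targeting median, log2; matched to mean KSR1 knockdown profile by Pearson correlation and euclidean distance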
Scale: mean correlation with KSR1 profile and KSR1 correlation: higher = expression change more like KSR1 knockdown; mean distance from KSR1 profile: higher = expression change less like KSR1 knockdown

target gene,mean correlation with KSR1 profile,mean distance from KSR1 profile,"KSR1 correlation, replicate 1","KSR1 correlation, replicate 2","KSR1 correlation, replicate 3"
MGST1,0.513,1.86,0.568,0.401,0.483
GDI1,-0.027,2.3,0.0358,0.0108,-0.149
PLPPR2,-0.42,3.11,-0.461,-0.627,-0.53
ATG4D,0.173,2.88,0.168,0.0674,0.00254
PCDH12,0.501,1.28,0.119,0.56,0.345
WIPF1,-0.197,3.27,-0.328,0.197,-0.198
SOST,-0.712,2.32,-0.739,-0.752,-0.586
CETN3,-0.12,3.51,0.178,-0.33,-0.163
POLE4,-0.668,1.99,-0.629,-0.572,-0.607
SMC2,-0.213,2.38,-0.0989,-0.278,-0.0954
FOXO4,-0.113,2.8,0.0303,0.397,-0.433
SS18L2,0.39,2.64,0.297,0.447,0.33
OFD1,0.395,4.29,0.392,0.25,0.343
NRBP2,-0.228,1.84,0.312,0.522,-0.736
GYG2,-0.411,1.93,-0.356,-0.169,-0.556
HHATL,-0.3,1.99,-0.0342,-0.448,-0.448
UGT2B10,-0.0421,1.72,0.227,-0.228,0.0178
TNNT2,-0.553,2.37,-0.575,-0.551,-0.432
BNC2,0.0602,2.05,-0.0396,0.0511,0.0944
TST,-0.131,2.17,-0.17,0.00143,-0.258
PLOD3,-0.434,5.31,-0.352,-0.454,-0.342
FBXL17,0.454,0.788,-0.255,0.326,0.583
ALDH3A1,0.265,2.22,0.158,0.443,0.593
PGAP4,0.0336,2.75,0.0184,-0.0328,-0.0676
AMH,-0.0468,1.6,-0.0735,-0.195,0.164
RPL9,0.686,1.94,0.612,0.774,0.606
FOXM1,0.364,1.35,0.634,0.235,-0.552
DDR2,0.39,1.75,0.433,0.546,0.117
TAAR1,0.825,2.52,0.91,0.824,0.803
TIGD5,0.473,1.3,0.221,0.251,0.497
DDX10,0.224,2.06,0.141,0.272,0.186
RPL4,0.18,4.23,0.311,0.0149,0.141
ZNF23,0.125,1.67,-0.0309,0.314,0.1
PADI3,-0.269,2.88,-0.32,-0.31,-0.337
PNMA1,0.515,1.58,0.225,0.49,0.341
KRT8,-0.469,1.5,-0.424,-0.471,-0.375
GPR55,0.8,1.99,0.53,0.887,0.771
USP9X,0.158,1.35,0.119,0.024,0.256
MKI67,0.416,2.06,0.566,-0.282,0.429
TBL2,0.298,1.5,0.216,-0.115,0.176
DLC1,0.567,1.99,0.711,0.676,0.202
LRAT,-0.337,3.23,-0.386,-0.328,-0.368
EIF2D,0.312,1.74,0.0336,0.484,0.29
TBC1D2B,0.21,1.79,0.356,0.148,0.202
VDAC2,-0.0972,1.92,0.292,-0.422,-0.0474
LOX,0.521,0.887,0.509,0.365,0.251
MIER2,-0.675,3.53,-0.671,-0.528,-0.593
PDZD4,-0.0534,1.71,0.0255,-0.197,-0.12
KDM4C,-0.938,1.21,-0.842,-0.7,-0.68
RBM5,0.949,1.62,0.904,0.941,0.715
PCCA,-0.374,1.79,-0.468,-0.356,-0.337
SNUPN,0.378,1.62,0.238,0.434,0.233
RNF128,0.849,0.774,0.9,0.816,0.812
SVOP,-0.12,2.37,0.00365,-0.307,-0.194
ABCG2,0.387,1.39,0.308,0.368,0.453
DNAH5,-0.182,1.72,0.102,-0.693,0.361
STAM2,0.445,1.84,0.522,0.289,0.455
MXRA5,0.301,1.53,0.444,0.0348,0.295
TRPC5,-0.415,1.62,-0.147,-0.187,-0.645
GALNT4,0.119,2.22,0.166,0.133,-0.0517
SENP7,-0.277,3.7,-0.276,-0.455,-0.242
DYNC1I2,-0.0591,4.89,-0.0168,0.0642,-0.25
TFG,0.0436,2.07,-0.029,-0.296,0.406

Targets listed so far whose gene name starts with F or f (3):
target gene,mean correlation with KSR1 profile,mean distance from KSR1 profile,"KSR1 correlation, replicate 1","KSR1 correlation, replicate 2","KSR1 correlation, replicate 3"
FOXO4,-0.113,2.8,0.0303,0.397,-0.433
FBXL17,0.454,0.788,-0.255,0.326,0.583
FOXM1,0.364,1.35,0.634,0.235,-0.552
